These are yes or no findings as the source states them, for the method shown. Binding seen in cells or lysates may run through a third protein. Here binding means that the protein was enriched with, or labelled near, the bait; the list need not be complete.
Target: Prelamin-A/C (human) (UniProt P02545)
Experiment: proximity labelling; BioID: MAC-tagged bait in stable Flp-In T-REx 293 cells, tetracycline and 50 uM biotin 24 h; lysis buffer 2 (as buffer 1 with 0.1% SDS), sonication, benzonase; biotinylated proteins on Strep-Tactin beads; LC-MS; SAINT and CRAPome filter

The chains behind the UniProt entries cited, without tags or fusion partners. Residues count along the entry.
UniProt P02545, residues 1-646: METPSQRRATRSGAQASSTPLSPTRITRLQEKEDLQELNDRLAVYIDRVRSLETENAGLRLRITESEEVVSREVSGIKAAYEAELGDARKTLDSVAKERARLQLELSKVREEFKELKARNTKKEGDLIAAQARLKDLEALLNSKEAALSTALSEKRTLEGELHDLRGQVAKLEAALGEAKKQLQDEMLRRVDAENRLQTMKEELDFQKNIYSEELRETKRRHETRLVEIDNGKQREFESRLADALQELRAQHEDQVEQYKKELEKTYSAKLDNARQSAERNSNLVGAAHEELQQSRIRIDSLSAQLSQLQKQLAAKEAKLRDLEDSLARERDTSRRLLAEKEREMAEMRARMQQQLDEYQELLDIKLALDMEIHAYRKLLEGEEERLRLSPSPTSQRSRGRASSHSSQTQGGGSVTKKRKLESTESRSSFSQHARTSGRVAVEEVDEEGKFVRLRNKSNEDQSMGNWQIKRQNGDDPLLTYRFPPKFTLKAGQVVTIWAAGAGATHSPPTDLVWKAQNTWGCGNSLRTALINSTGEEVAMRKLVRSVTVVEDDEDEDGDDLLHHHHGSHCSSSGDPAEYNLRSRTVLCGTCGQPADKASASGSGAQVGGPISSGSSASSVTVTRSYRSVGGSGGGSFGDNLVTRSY
UniProt O00505: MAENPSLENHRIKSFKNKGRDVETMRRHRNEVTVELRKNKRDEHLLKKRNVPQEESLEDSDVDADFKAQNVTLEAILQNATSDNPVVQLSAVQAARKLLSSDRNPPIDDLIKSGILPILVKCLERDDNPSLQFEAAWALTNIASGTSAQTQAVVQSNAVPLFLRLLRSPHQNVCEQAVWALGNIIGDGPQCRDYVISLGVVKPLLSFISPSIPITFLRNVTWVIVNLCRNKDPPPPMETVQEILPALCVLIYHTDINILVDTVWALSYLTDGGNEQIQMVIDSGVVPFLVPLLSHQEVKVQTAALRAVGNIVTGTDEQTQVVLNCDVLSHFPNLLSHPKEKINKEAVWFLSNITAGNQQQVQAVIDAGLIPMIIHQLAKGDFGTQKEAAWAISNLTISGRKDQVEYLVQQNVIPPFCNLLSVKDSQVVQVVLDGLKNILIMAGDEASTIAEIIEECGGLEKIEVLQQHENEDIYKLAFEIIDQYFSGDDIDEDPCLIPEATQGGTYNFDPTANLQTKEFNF
UniProt Q96HA1: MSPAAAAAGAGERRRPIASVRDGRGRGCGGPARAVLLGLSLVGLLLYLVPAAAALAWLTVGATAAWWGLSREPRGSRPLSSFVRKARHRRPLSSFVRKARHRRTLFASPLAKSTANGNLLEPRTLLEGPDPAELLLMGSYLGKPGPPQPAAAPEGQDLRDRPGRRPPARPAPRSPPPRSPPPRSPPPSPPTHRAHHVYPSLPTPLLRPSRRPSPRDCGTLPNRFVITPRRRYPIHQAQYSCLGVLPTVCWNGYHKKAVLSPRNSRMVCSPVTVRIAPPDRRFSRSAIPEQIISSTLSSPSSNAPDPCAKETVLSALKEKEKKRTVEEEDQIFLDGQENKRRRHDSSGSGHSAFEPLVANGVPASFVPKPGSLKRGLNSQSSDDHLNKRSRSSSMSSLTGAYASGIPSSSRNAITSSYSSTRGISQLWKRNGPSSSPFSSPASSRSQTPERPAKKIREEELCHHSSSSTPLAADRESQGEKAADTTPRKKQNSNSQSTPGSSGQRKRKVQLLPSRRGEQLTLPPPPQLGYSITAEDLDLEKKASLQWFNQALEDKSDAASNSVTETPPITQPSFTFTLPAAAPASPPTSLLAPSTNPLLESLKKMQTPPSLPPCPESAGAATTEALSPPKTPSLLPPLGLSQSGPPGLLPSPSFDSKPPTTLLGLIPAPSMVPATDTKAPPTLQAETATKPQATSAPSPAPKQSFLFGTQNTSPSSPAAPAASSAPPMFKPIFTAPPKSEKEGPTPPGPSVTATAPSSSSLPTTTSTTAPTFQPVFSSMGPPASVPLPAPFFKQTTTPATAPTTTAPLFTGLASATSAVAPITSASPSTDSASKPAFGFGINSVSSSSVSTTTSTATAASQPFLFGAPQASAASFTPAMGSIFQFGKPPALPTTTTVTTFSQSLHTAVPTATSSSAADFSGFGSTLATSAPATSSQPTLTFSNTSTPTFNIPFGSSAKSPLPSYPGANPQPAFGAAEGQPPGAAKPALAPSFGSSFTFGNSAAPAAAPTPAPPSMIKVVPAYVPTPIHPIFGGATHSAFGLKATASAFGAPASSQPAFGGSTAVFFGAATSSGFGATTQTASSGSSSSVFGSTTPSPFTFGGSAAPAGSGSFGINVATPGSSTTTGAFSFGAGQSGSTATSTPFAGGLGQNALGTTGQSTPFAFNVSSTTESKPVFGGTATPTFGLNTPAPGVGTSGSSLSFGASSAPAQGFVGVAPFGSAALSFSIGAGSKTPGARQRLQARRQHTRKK
UniProt A8CG34: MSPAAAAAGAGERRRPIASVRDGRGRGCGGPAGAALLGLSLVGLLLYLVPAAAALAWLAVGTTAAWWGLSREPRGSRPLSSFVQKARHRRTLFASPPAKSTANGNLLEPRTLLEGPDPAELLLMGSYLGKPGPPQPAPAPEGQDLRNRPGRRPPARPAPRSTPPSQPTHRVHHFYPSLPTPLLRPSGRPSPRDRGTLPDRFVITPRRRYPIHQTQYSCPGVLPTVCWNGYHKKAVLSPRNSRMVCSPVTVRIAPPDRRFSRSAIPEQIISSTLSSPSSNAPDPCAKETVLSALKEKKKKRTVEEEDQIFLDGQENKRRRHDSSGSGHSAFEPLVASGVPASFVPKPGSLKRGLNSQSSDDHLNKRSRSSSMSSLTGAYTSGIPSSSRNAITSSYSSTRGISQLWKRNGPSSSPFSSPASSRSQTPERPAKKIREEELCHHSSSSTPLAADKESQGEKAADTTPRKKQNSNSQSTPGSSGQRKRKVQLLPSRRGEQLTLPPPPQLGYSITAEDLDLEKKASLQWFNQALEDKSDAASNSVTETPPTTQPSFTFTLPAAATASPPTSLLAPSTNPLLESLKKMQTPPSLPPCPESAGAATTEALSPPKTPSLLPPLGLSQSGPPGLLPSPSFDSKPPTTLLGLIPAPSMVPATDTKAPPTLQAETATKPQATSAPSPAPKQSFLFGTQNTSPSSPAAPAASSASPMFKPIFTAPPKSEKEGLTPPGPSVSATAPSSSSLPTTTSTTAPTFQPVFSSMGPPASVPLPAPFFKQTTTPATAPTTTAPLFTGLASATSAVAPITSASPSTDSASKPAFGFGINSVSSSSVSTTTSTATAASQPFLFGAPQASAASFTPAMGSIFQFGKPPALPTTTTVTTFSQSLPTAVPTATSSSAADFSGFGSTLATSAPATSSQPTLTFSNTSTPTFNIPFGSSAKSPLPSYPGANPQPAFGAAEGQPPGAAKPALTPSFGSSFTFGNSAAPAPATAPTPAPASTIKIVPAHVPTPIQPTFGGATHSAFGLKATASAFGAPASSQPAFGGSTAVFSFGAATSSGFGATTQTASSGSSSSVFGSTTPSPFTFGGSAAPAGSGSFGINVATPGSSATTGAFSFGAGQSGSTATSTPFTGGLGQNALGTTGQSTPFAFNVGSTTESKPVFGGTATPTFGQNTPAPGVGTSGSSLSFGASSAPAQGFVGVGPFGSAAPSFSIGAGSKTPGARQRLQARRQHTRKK
UniProt O15131: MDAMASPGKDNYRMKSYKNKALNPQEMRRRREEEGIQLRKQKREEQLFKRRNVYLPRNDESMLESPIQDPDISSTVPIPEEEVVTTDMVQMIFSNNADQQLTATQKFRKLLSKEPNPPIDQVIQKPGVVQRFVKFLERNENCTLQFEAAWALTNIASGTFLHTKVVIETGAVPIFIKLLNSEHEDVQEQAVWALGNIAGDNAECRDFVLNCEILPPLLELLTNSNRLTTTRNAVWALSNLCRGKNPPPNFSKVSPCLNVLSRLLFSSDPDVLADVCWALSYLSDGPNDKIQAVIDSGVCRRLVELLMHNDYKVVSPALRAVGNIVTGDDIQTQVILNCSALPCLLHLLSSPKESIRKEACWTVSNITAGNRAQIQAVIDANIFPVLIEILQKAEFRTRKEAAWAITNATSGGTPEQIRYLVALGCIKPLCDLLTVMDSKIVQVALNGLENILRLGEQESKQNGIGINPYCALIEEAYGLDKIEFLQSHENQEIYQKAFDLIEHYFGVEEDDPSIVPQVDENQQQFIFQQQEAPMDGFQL
UniProt Q8WYP5: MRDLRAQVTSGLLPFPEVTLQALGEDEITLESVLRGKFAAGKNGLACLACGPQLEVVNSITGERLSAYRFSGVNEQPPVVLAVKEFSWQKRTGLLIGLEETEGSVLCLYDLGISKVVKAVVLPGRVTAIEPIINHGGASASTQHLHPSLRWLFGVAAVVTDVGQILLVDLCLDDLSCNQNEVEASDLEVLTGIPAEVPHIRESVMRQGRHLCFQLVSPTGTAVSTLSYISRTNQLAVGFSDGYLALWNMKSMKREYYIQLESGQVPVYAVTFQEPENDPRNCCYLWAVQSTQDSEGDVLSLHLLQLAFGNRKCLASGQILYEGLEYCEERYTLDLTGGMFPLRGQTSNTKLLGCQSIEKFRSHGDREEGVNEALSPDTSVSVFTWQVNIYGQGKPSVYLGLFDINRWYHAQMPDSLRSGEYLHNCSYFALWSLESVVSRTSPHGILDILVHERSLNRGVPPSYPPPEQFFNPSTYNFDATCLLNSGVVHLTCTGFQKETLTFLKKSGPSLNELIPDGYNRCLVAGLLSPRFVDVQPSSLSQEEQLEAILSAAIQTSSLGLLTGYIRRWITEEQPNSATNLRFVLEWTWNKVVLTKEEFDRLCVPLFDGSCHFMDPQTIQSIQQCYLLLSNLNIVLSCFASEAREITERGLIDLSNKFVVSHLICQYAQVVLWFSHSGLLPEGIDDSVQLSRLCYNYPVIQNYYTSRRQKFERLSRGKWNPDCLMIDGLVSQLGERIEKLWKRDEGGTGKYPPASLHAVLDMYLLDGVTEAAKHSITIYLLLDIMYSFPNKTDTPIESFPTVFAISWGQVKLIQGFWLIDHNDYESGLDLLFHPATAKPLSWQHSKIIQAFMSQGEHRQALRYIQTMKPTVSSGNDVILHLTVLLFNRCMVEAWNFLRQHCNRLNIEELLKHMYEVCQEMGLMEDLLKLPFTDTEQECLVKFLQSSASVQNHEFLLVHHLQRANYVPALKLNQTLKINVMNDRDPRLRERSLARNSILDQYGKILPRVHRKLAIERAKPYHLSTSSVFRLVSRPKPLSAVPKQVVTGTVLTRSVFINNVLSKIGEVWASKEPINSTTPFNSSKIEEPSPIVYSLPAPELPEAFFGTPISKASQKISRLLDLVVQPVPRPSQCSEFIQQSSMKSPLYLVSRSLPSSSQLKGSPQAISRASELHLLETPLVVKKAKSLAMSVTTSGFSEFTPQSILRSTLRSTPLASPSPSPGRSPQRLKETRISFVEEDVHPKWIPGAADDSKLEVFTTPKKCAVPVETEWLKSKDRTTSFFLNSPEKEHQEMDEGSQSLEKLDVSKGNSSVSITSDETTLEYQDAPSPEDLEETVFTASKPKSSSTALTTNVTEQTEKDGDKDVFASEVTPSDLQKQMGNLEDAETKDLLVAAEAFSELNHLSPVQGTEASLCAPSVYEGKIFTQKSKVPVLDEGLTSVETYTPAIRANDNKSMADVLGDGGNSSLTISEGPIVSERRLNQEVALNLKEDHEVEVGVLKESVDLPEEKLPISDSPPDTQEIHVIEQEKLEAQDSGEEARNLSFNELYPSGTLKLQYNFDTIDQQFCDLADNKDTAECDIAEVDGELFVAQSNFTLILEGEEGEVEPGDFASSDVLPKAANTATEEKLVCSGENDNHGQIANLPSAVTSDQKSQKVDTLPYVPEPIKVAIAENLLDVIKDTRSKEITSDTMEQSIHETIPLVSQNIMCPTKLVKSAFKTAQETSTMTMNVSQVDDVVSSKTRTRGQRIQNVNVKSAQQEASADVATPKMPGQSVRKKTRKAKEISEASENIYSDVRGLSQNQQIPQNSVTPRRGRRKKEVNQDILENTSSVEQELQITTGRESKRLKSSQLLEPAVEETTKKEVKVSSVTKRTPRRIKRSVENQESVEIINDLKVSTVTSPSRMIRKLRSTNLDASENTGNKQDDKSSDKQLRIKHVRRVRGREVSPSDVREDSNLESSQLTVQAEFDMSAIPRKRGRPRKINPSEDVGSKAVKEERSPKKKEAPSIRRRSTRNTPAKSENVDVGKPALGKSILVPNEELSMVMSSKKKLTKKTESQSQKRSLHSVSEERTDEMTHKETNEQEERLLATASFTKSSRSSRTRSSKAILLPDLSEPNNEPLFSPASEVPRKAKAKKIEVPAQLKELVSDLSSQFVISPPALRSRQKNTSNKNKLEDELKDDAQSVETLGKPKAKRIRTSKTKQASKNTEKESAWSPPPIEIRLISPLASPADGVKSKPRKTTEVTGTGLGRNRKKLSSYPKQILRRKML

| Molecule | binding |
| --- | --- |
| importin subunit beta-1 (from UniProt Q14974 1-876) (other; other documents disagree on this pair) | binds |
| importin subunit alpha IMA3 (from UniProt O00629 1-521) | binds |
| importin subunit alpha IMA4 (from UniProt O00505 1-521) | binds |
| NUP98 (from UniProt P52948 1-880) | binds |
| nuclear envelope pore membrane protein POM 121A (from UniProt Q96HA1 1-1249) | binds |
| NU153 (from UniProt P49790 1-1475) | binds |
| nuclear envelope pore membrane protein POM 121C (from UniProt A8CG34 1-1229) | binds |
| Nuclear pore complex protein Nup (NU) 107 (protein, UniProt P57740 1-925) MDRSGFGEISSPVIREAEVTRTARKQSAQKRVLLQASQDENFGNTTPRNQVIPRTPSSFRQPFTPTSRSLLRQPDISCILGTGGKSPRLTQSSGFFGNLSMVTNLDDSNWAAAFSSQRSGLFTNTEPHSITEDVTISAVMLREDDPGEAASMSMFSDFLQSFLKHSSSTVFDLVEEYENICGSQVNILSKIVSRATPGLQKFSKTASMLWLLQQEMVTWRLLASLYRDRIQSALEEESVFAVTAVNASEKTVVEALFQRDSLVRQSQLVVDWLESIAKDEIGEFSDNIEFYAKSVYWENTLHTLKQRQLTSYVGSVRPLVTELDPDAPIRQKMPLDDLDREDEVRLLKYLFTLIRAGMTEEAQRLCKRCGQAWRAATLEGWKLYHDPNVNGGTELEPVEGNPYRRIWKISCWRMAEDELFNRYERAIYAALSGNLKQLLPVCDTWEDTVWAYFRVMVDSLVEQEIQTSVATLDETEELPREYLGANWTLEKVFEELQATDKKRVLEENQEHYHIVQKFLILGDIDGLMDEFSKWLSKSRNNLPGHLLRFMTHLILFFRTLGLQTKEEVSIEVLKTYIQLLIREKHTNLIAFYTCHLPQDLAVAQYALFLESVTEFEQRHHCLELAKEADLDVATITKTVVENIRKKDNGEFSHHDLAPALDTGTTEEDRLKIDVIDWLVFDPAQRAEALKQGNAIMRKFLASKKHEAAKEVFVKIPQDSIAEIYNQCEEQGMESPLPAEDDNAIREHLCIRAYLEAHETFNEWFKHMNSVPQKPALIPQPTFTEKVAHEHKEKKYEMDFGIWKGHLDALTADVKEKMYNVLLFVDGGWMVDVREDAKEDHERTHQMVLLRKLCLPMLCFLLHTILHSTGQYQECLQLADMVSSERHKLYLVFSKEELRKLLQKLRESSLMLLDQGLDPLGYEIQL | binds |

Continued, values first:

| binding | Molecule |
| --- | --- |
| binds | importin subunit alpha IMA6 (from UniProt O15131 1-539) |
| binds | ELYS (from UniProt Q8WYP5 1-2266) |
| binds | NU155 (protein, UniProt O75694 1-1391) MPSSLLGAAMPASTSAAALQEALENAGRLIDRQLQEDRMYPDLSELLMVSAPNNPTVSGMSDMDYPLQGPGLLSVPNLPEISSIRRVPLPPELVEQFGHMQCNCMMGVFPPISRAWLTIDSDIFMWNYEDGGDLAYFDGLSETILAVGLVKPKAGIFQPHVRHLLVLATPVDIVILGLSYANLQTGSGVLNDSLSGGMQLLPDPLYSLPTDNTYLLTITSTDNGRIFLAGKDGCLYEVAYQAEAGWFSQRCRKINHSKSSLSFLVPSLLQFTFSEDDPILQIAIDNSRNILYTRSEKGVIQVYDLGQDGQGMSRVASVSQNAIVSAAGNIARTIDRSVFKPIVQIAVIENSESLDCQLLAVTHAGVRLYFSTCPFRQPLARPNTLTLVHVRLPPGFSASSTVEKPSKVHRALYSKGILLMAASENEDNDILWCVNHDTFPFQKPMMETQMTAGVDGHSWALSAIDELKVDKIITPLNKDHIPITDSPVVVQQHMLPPKKFVLLSAQGSLMFHKLRPVDQLRHLLVSNVGGDGEEIERFFKLHQEDQACATCLILACSTAACDREVSAWATRAFFRYGGEAQMRFPTTLPPPSNVGPILGSPVYSSSPVPSGSPYPNPSFLGTPSHGIQPPAMSTPVCALGNPATQATNMSCVTGPEIVYSGKHNGICIYFSRIMGNIWDASLVVERIFKSGNREITAIESSVPCQLLESVLQELKGLQEFLDRNSQFAGGPLGNPNTTAKVQQRLIGFMRPENGNPQQMQQELQRKFHEAQLSEKISLQAIQQLVRKSYQALALWKLLCEHQFTIIVAELQKELQEQLKITTFKDLVIRDKELTGALIASLINCYIRDNAAVDGISLHLQDICPLLYSTDDAICSKANELLQRSRQVQNKTEKERMLRESLKEYQKISNQVDLSNVCAQYRQVRFYEGVVELSLTAAEKKDPQGLGLHFYKHGEPEEDIVGLQAFQERLNSYKCITDTLQELVNQSKAAPQSPSVPKKPGPPVLSSDPNMLSNEEAGHHFEQMLKLSQRSKDELFSIALYNWLIQVDLADKLLQVASPFLEPHLVRMAKVDQNRVRYMDLLWRYYEKNRSFSNAARVLSRLADMHSTEISLQQRLEYIARAILSAKSSTAISSIAADGEFLHELEEKMEVARIQLQIQETLQRQYSHHSSVQDAVSQLDSELMDITKLYGEFADPFKLAECKLAIIHCAGYSDPILVQTLWQDIIEKELSDSVTLSSSDRMHALSLKIVLLGKIYAGTPRFFPLDFIVQFLEQQVCTLNWDVGFVIQTMNEIGVPLPRLLEVYDQLFKSRDPFWNRMKKPLHLLDCIHVLLIRYVENPSQVLNCERRRFTNLCLDAVCGYLVELQSMSSSVAVQAITGNFKSLQAKLERLH |
| binds | NU133 (protein, UniProt Q8WUM0 1-1156) MFPAAPSPRTPGTGSRRGPLAGLGPGSTPRTASRKGLPLGSAVSSPVLFSPVGRRSSLSSRGTPTRMFPHHSITESVNYDVKTFGSSLPVKVMEALTLAEVDDQLTINIDEGGWACLVCKEKLIIWKIALSPITKLSVCKELQLPPSDFHWSADLVALSYSSPSGEAHSTQAVAVMVATREGSIRYWPSLAGEDTYTEAFVDSGGDKTYSFLTAVQGGSFILSSSGSQLIRLIPESSGKIHQHILPQGQGMLSGIGRKVSSLFGILSPSSDLTLSSVLWDRERSSFYSLTSSNISKWELDDSSEKHAYSWDINRALKENITDAIWGSESNYEAIKEGVNIRYLDLKQNCDGLVILAAAWHSADNPCLIYYSLITIEDNGCQMSDAVTVEVTQYNPPFQSEDLILCQLTVPNFSNQTAYLYNESAVYVCSTGTGKFSLPQEKIVFNAQGDSVLGAGACGGVPIIFSRNSGLVSITSRENVSILAEDLEGSLASSVAGPNSESMIFETTTKNETIAQEDKIKLLKAAFLQYCRKDLGHAQMVVDELFSSHSDLDSDSELDRAVTQISVDLMDDYPASDPRWAESVPEEAPGFSNTSLIILHQLEDKMKAHSFLMDFIHQVGLFGRLGSFPVRGTPMATRLLLCEHAEKLSAAIVLKNHHSRLSDLVNTAILIALNKREYEIPSNLTPADVFFREVSQVDTICECLLEHEEQVLRDAPMDSIEWAEVVINVNNILKDMLQAASHYRQNRNSLYRREESLEKEPEYVPWTATSGPGGIRTVIIRQHEIVLKVAYPQADSNLRNIVTEQLVALIDCFLDGYVSQLKSVDKSSNRERYDNLEMEYLQKRSDLLSPLLSLGQYLWAASLAEKYCDFDILVQMCEQTDNQSRLQRYMTQFADQNFSDFLFRWYLEKGKRGKLLSQPISQHGQLANFLQAHEHLSWLHEINSQELEKAHATLLGLANMETRYFAKKKTLLGLSKLAALASDFSEDMLQEKIEEMAEQERFLLHQETLPEQLLAEKQLNLSAMPVLTAPQLIGLYICEENRRANEYDFKKALDLLEYIDEEEDININDLKLEILCKALQRDNWSSSDGKDDPIEVSKDSIFVKILQKLLKDGIQLSEYLPEVKDLLQADQLGSLKSNPYFEFVLKANYEYYVQGQI |
